Reference: PubChem BioAssay AID1508600 (Functional Genomics Laboratory (NCATS/FGL), 2020)
The whole screen tested about 53,000 sequences, of which about 3,700 (7%) were called active.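 Rule for the calls: active = gene knockdowns whose robust z-score for IL-1 alpha signal is at least 2 or at most -2, so actives lie on both sides; inactive = the rest.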 The list shows a part of the results.

Test: Components of the Cytosolic LPS Sensing Pathway: Gene Identification via Genome-wide siRNA Screen;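 note: robust z of the log signal after scaling to non-targeting control siRNA wells of the plate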
Conditions: RAW264.7 macrophages, IL-1a HTRF, actives lie on both sides, screened at 100 nM (by protocol), cells primed 5 h with Pam3CSK4 first
Outline: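 Knockdown: 100 nM siRNA, 48h, RAW264.7. Stimulation: Pam3CSK4 5 h, then LipidA via TransIT-TKO 24 h. Output: supernatant IL-1a HTRF, negative-control-normalized, log robust z-score; viability by CellTiter-Glo.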

Row | Sequence | z-score
1 | GGUUACAGAGCUACAUCGATT against A930017M01Rik | inactive: -1.17
2 | GGACUGUGUCCUUCUAUGATT against Oas1f | inactive: 0.103
3 | GCCAUAUGUCAAGCCUGACTT against Scrn3 | inactive: -1.6
4 | GGCAGUUUUAUGAACUAUUTT against Zfp3 | inactive: 1.69
5 | GGACUCAAUAAGAACCUCGTT against Papss1 | inactive: -1.25
6 | CCUUGUGAUGUUUAAAGACTT against Abcg1 | inactive: 0.293
7 | GGUUUGGAGUGACUUAAUATT against Scrn2 | inactive: 0.349
8 | GCACUGCCAGAGGUUCUGUTT against U90926 | inactive: -0.107
9 | CGAAGUGUUACUUUUUCAATT against Skp2 | inactive: 1.69
10 | GAGCAGAGCCAAAUCAAAGTT against Psenen | inactive: 0.00512
11 | GGCUCUGGAUGAAGAACUUTT against Gfpt2 | active: 4.13
12 | GGAUUAGAUUAACCUCGACTT against Qrfp | inactive: -1.15
13 | GCUUCCUACUCUCCAGUUUTT against Dmkn | inactive: 0.981
14 | GCUUUUGCCCGAUGGAUUUTT against Plpp3 | inactive: 0.136
15 | GCCCAAUAGCACAAAGAACTT against Lcor | inactive: -0.407
16 | GGACUUGGUGGUAUCUUACTT against Sult4a1 | inactive: 0.948
17 | GCCUAACAGGGUCAAAUCUTT against Olfr272 | inactive: 0.515
18 | GCUUACUACUCCGUAAAUGTT against Aldh5a1 | inactive: -1.13
19 | GGCUCUUACUCCUGUAUGUTT against Thbd | inactive: 1.2
20 | GGAAUCUCAGACCAUCCAGTT against Cpa3 | inactive: 0.132
21 | CCUCUUAAGUUUUCCAUGATT against Tuba1b | inactive: -0.0656
22 | CUCCCAAAUACUGAUUAUATT against Trim6 | inactive: 0.0665
23 | GGCUAUGGAAAAAGAUAUGTT against Il21r | inactive: -1.02

Row | Sequence | z-score
24 | GGUUUACUGGCCAAGAUGGTT against 4930579K19Rik | inactive: -0.327
25 | GCUGACCUUAAAUCCUGACTT against Pgpep1 | inactive: 0.834
26 | GGGUAAAACCAUCAAGGAGTT against Aldh1l2 | inactive: -0.305
27 | GGAAACCAGAGAACAAAACTT against Pmp22 | inactive: -0.0212
28 | GGUCCGAAAUGAGUUUUACTT against Dnajc27 | inactive: 0.414
29 | CCUGUCAUCACACUCGAGGTT against Coro6 | inactive: -0.00248
30 | GCAGUGUCCAGUAAAGAUUTT against Hdgfl1 | inactive: -0.0131
31 | CGCCUGACUUCGUGUAUUUTT against Prrg2 | inactive: -1.74
32 | UUCGCUCUUGGUCCCUUCATT against Olfr1322 | inactive: 1.06
33 | CCCAAAACGGAAUAAGCUATT against Dusp8 | inactive: -0.462
34 | GGAGGACUUAGAGAGUAUGTT against Ctdp1 | inactive: -0.595
35 | GGCAGCUCUUACAACAGUATT against Htr3b | inactive: -1.47
36 | GACAUAAGCGGUAACAUCATT against Gltp | inactive: 1.19
37 | GGAGAUGGAAGUAAUUUUUTT against Plk4 | inactive: -0.18
38 | CCGUGGUUCUCUCUUAUAUTT against Olfr1106 | inactive: -1.1
39 | GCCGAACUUCGGAAUUCUGTT against Nf1 | active: 2.08
40 | CGAAGAUUGCUUCACAGGCTT against Spaca4 | inactive: -0.989
41 | GGCCUUACUAAAUAUACAUTT against Trpd52l3 | inactive: 1.1
42 | GCUAAGGCCUUUAUUCGCUTT against Tlr11 | inactive: 0.0562
43 | GCUCCACUGGCAGUCACUUTT against Sppl3 | inactive: 0.32
44 | GGAAAAGUGAAGGUGAUUCTT against Hspa13 | inactive: -0.61
45 | CCUUCAUUAACUGUGCCUATT against Slc7a7 | inactive: -0.438
46 | GCUAGAAAUGAUUUAUGUGTT against Tceanc | inactive: 0.622

14 entries from above, tab-delimited:
Row	Sequence	z-score
2	GGACUGUGUCCUUCUAUGATT against Oas1f	inactive: 0.103
3	GCCAUAUGUCAAGCCUGACTT against Scrn3	inactive: -1.6
7	GGUUUGGAGUGACUUAAUATT against Scrn2	inactive: 0.349
8	GCACUGCCAGAGGUUCUGUTT against U90926	inactive: -0.107
10	GAGCAGAGCCAAAUCAAAGTT against Psenen	inactive: 0.00512
15	GCCCAAUAGCACAAAGAACTT against Lcor	inactive: -0.407
17	GCCUAACAGGGUCAAAUCUTT against Olfr272	inactive: 0.515
21	CCUCUUAAGUUUUCCAUGATT against Tuba1b	inactive: -0.0656
29	CCUGUCAUCACACUCGAGGTT against Coro6	inactive: -0.00248
31	CGCCUGACUUCGUGUAUUUTT against Prrg2	inactive: -1.74
32	UUCGCUCUUGGUCCCUUCATT against Olfr1322	inactive: 1.06
36	GACAUAAGCGGUAACAUCATT against Gltp	inactive: 1.19
37	GGAGAUGGAAGUAAUUUUUTT against Plk4	inactive: -0.18
40	CGAAGAUUGCUUCACAGGCTT against Spaca4	inactive: -0.989

More entries:

Row | Sequence | z-score
47 | GGACUGAAGGAUGCCUCAATT against Cngb1 | inactive: 0.78
48 | GGAUAUUCAAAUGGGUGCCTT against Bcl7b | inactive: 0.538
49 | CCACAAUGAAUGGUAUUUGTT against Slc41a2 | inactive: 1.2
50 | GGAGAUUUCCCGACUUAACTT against Tnip2 | inactive: 1.68
51 | CCUUUGGAUCAUGCUACAATT against Csn2 | inactive: -1.05
52 | GGCUCAAGGACAGAUGAUGTT against Hsp90b1 | inactive: -1.72
53 | GCAUAUUUGCUCCAUUGAUTT against Olfr1162 | inactive: -0.609
54 | GCAAUUAUAUUUGUUCGGGTT against Ptpdc1 | inactive: 0.55
55 | GGGAAUUUACCAAGUACCCTT against Nedd9 | inactive: 1.53
56 | GGAUAUCCAAGCUUUUGAATT against Dnajc9 | inactive: -0.0734
57 | GCUUUGUUCUAAAUUCAUGTT against Cd2ap | inactive: 0.843
58 | GGCUUUGACCUUUAUCACCTT against Bcdin3d | inactive: -0.473
59 | GGAAAAACUGUGCAAAUAATT against Krt75 | inactive: 1.26
60 | GCAGCCUCUUCUAUUUGGCTT against Olfr354 | inactive: -1.35
61 | CCUACAGUACUUCAAGCGGTT against Hip1 | inactive: -1.37
62 | GCAAGUCCCUUGAGGAUAGTT against Vstm2b | inactive: 0.419
63 | GGGAAUUUCACACUGAGUATT against Tpm4 | inactive: 1.49
64 | GGAAAUCGAGAGAAAUUCATT against Tead2 | active: 2.07
65 | GCCGUUCACCAUGAAAUGGTT against Prkci | inactive: -0.898
66 | CGGAGUUUUCAAACAUAUGTT against Anapc13 | inactive: -1.17
67 | GGAAAUACUGCUGACCAUUTT against Carnmt1 | inactive: 0.655
68 | GGAUGAAAUGGAAGAAGAUTT against Barx2 | inactive: -0.319
